# From publication PMC7819943, “Rice protein-binding microarrays: a tool to detect cis-acting elements near promoter regions in rice”
# Chains of the proteins cited; added tags and fusions are not shown.
# UniProt Q0JBA9, entry or part of it: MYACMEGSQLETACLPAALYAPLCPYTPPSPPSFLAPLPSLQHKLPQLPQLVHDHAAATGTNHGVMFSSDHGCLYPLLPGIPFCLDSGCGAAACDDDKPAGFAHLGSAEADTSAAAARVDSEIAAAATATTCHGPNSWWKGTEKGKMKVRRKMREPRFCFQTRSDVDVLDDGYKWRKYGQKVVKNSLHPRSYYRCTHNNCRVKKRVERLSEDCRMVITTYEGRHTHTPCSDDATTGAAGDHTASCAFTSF
# The other results are listed elsewhere or left out.
# Molecular target: OsWRKY34 (Oryza sativa, UniProt Q0JBA9 1-250)
# Test: protein-binding microarray (RPBM); PBS, 2% BSA, 51.3 ng/ul salmon testes DNA, 50 uM zinc acetate, 200 nM TF, 25 C, 1 h; high values mean tight binding
# Conditions: protein: recombinant; tags: N-terminal polyhistidine and DsRed monomer fusion (pET32a); label: CyDye5-dUTP incorporated in the synthesized complementary strand; 3' TTTTT single-stranded linker to array surface; dsDNA, one strand shown
# Summary of the method: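 Transcription factors were each fused at the N-terminus to a polyhistidine tag plus DsRed and expressed in E. coli BL21-CodonPlus before Ni–NTA purification. Binding to a double-stranded custom Agilent array was carried out with 200 nM protein at 25 °C for 1 h in PBS, 2% BSA, salmon testes DNA and 50 µM zinc acetate. The binding signal is per-feature fluorescence intensity, in arbitrary units, on an Axon 4000B scanner.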
row,Sequence,binding signal
1,AGGCTATTTACCACTCCCTGCCACTGCAGCACACCGACACCGGAGTCACCTAGTGCAG,9280 fluorescence intensity (a.u.)
2,GTCACTTTCTTTTGTCGATTGACAGAGTCTCGTGCAATTGCGGAGTCACCTAGTGCAG,8520 fluorescence intensity (a.u.)
3,CGGCCTCCACTCCCGTCTCCCCGCGACTTCGCCCGCCGCGCGGAGTCACCTAGTGCAG,8180 fluorescence intensity (a.u.)
4,TTCATCTGCTTCGTCCTCAGATCCGATCTCTCTTCTCATTCGGAGTCACCTAGTGCAG,11600 fluorescence intensity (a.u.)
5,AGTGGAGGGAGATAATCACAGTAGTACCAAATTCTCTAAGCGGAGTCACCTAGTGCAG,8100 fluorescence intensity (a.u.)
6,CTTTTGTTGATTCTTGTCCATGATCCCAAGTCATCACTTTCGGAGTCACCTAGTGCAG,8780 fluorescence intensity (a.u.)
7,CTTTGCTCACTCTTTCTTTTCTCTTCAGGTCTCCATTCTTCGGAGTCACCTAGTGCAG,12200 fluorescence intensity (a.u.)
8,GTACTGGTTAGTTTTGTCTTGGCTCTGAAACTTTTATAGCCGGAGTCACCTAGTGCAG,12000 fluorescence intensity (a.u.)
9,TAATCACCCTATTAACCTGCATTTCTCATCTACCCCTTCACGGAGTCACCTAGTGCAG,9900 fluorescence intensity (a.u.)
10,GTAGCTCATTTTCTTTGACGTGTATTTTTGTGTCTTACATCGGAGTCACCTAGTGCAG,8840 fluorescence intensity (a.u.)
11,GGGTGTCAAATTTTTAAGTATCACATCGGGTATTATATAGCGGAGTCACCTAGTGCAG,9600 fluorescence intensity (a.u.)
12,CAGTTTTGACTCCGGTTTTATTCGATGTGGCAGCTGACTCCGGAGTCACCTAGTGCAG,13200 fluorescence intensity (a.u.)
13,TTTGTTCAGGTTATATTATGTTGTCAATAGAAAATTTATTCGGAGTCACCTAGTGCAG,8090 fluorescence intensity (a.u.)
14,TATTTCCTTTAACCTTTCCCCTTGCTGGTTCTTTTATCTTCGGAGTCACCTAGTGCAG,13700 fluorescence intensity (a.u.)
15,TCTCAGTTCTCACCCTGCTAGGCTGCTAGACCCTCTCTTCCGGAGTCACCTAGTGCAG,8180 fluorescence intensity (a.u.)
16,GTGCATGGTGGCGGTGGAGGTTCATGTGTTCTTGGTTGAACGGAGTCACCTAGTGCAG,10300 fluorescence intensity (a.u.)
17,ATACCGTTTCCTTTTCTTGTTCACTTGTTTTAAACTGACCCGGAGTCACCTAGTGCAG,9060 fluorescence intensity (a.u.)
18,TGCATCCTTCTACCGCCCGCATTGCTTTTGCTCCCTCCTCCGGAGTCACCTAGTGCAG,8160 fluorescence intensity (a.u.)
19,TCGTGAAATCAAACCATTTTTCTATACCCAGCTTCGTCTTCGGAGTCACCTAGTGCAG,9370 fluorescence intensity (a.u.)
20,CGGAGGTGACAAAAACTATCTGCTCCACTTTCATCCCTACCGGAGTCACCTAGTGCAG,8310 fluorescence intensity (a.u.)
21,GGTTGCTTCCATAATCCCCAGTCCCCACTACTGCTCATCACGGAGTCACCTAGTGCAG,11000 fluorescence intensity (a.u.)

row,Sequence,binding signal
1,TTCTTGCCCTGCTTGTTCATTTATCTTATTCAAAATATTTCGGAGTCACCTAGTGCAG,9580 fluorescence intensity (a.u.)
2,GATTCGTTGACATACCTCAGATGAACTTATTCCTAGGGCACGGAGTCACCTAGTGCAG,8090 fluorescence intensity (a.u.)
3,ACTCTTCGCTCCGCCGCCGTCTCCTCCGCCTCGGGCTTTCCGGAGTCACCTAGTGCAG,11000 fluorescence intensity (a.u.)
4,CTTTCTTCTCGCTTGCTGAAGGCGGCTCTTTTACGTCTGTCGGAGTCACCTAGTGCAG,9670 fluorescence intensity (a.u.)
5,TATATAACTTAACATGTTTCATCACTAACTACCTAAGCTACGGAGTCACCTAGTGCAG,8270 fluorescence intensity (a.u.)
6,GCTCACCGGACAACATTTCATCGTCGATCATCAACCGCATCGGAGTCACCTAGTGCAG,9770 fluorescence intensity (a.u.)
7,AACCCCTTATACACCTACTACGCATCTACTAGTACCACTACGGAGTCACCTAGTGCAG,8530 fluorescence intensity (a.u.)
8,CACCTGCGCCTCTCCACCGGTGATCTCCTCCCTTCTCACCCGGAGTCACCTAGTGCAG,8540 fluorescence intensity (a.u.)
9,ACCGGCCAACCCTCCCCACCCCAGCCGCCGGCCGCCAGGCCGGAGTCACCTAGTGCAG,8520 fluorescence intensity (a.u.)
10,GGAGGGGCGGCGATCGAGCAGAGCAGGGGAGGGAATCCTGCGGAGTCACCTAGTGCAG,8310 fluorescence intensity (a.u.)
11,CCTATGTTATTACCTTGACGGCTTGACCGCTCGACTCTATCGGAGTCACCTAGTGCAG,8410 fluorescence intensity (a.u.)
12,TTTCGTGATTTTCCCCGGTTGGCCACTACTTTTGCGATTTCGGAGTCACCTAGTGCAG,9570 fluorescence intensity (a.u.)
13,CACCCCTACCTGGCGCGCCAACTGTCGAAACAATATTTCACGGAGTCACCTAGTGCAG,8810 fluorescence intensity (a.u.)
14,GCCGGAGTCCATCGCCCTACATTGCCCACCAACCGCACGCCGGAGTCACCTAGTGCAG,10200 fluorescence intensity (a.u.)
15,ATTCCCGCCTTGGCGTTTGCTTCGTCTTCCCCGTCGCATTCGGAGTCACCTAGTGCAG,11100 fluorescence intensity (a.u.)
16,ATTCTCCTCCCCGCCGGCCTCTTATCCATACTGCGAGATGCGGAGTCACCTAGTGCAG,8390 fluorescence intensity (a.u.)
17,GCACGACCTTAATAATGCATGCGTAACTGTTCTCCCGTCACGGAGTCACCTAGTGCAG,9530 fluorescence intensity (a.u.)
18,AGTCACCGCCGCCGCATCTGCCGCCCCGCGAGTCGCCGTCCGGAGTCACCTAGTGCAG,8460 fluorescence intensity (a.u.)
19,GTTCGGGGCGTGACAATATGTTAGGGTGTGACAGTTAGTTCGGAGTCACCTAGTGCAG,8130 fluorescence intensity (a.u.)
20,GAGCTCTGTTCTTTTCCCCGTTTCTTGGTACTGGTGATTCCGGAGTCACCTAGTGCAG,10700 fluorescence intensity (a.u.)
21,ACTCACTCATCACTTCTGTTCCTTGAATTTATTTGTATTTCGGAGTCACCTAGTGCAG,13000 fluorescence intensity (a.u.)

# Some of the entries so far, bar-delimited.
row | Sequence | binding signal
6 | GCTCACCGGACAACATTTCATCGTCGATCATCAACCGCATCGGAGTCACCTAGTGCAG | 9770 fluorescence intensity (a.u.)
7 | AACCCCTTATACACCTACTACGCATCTACTAGTACCACTACGGAGTCACCTAGTGCAG | 8530 fluorescence intensity (a.u.)
8 | CACCTGCGCCTCTCCACCGGTGATCTCCTCCCTTCTCACCCGGAGTCACCTAGTGCAG | 8540 fluorescence intensity (a.u.)
9 | ACCGGCCAACCCTCCCCACCCCAGCCGCCGGCCGCCAGGCCGGAGTCACCTAGTGCAG | 8520 fluorescence intensity (a.u.)

# (listing goes on)

row,Sequence,binding signal
1,AGGCACGCCACGCACCCACCGCTCACCAATCCCCAATTCCCGGAGTCACCTAGTGCAG,11800 fluorescence intensity (a.u.)
2,GTAGGGCTGAAATTTTACATGTTGCATGGTCGTTGGACACCGGAGTCACCTAGTGCAG,9190 fluorescence intensity (a.u.)
3,CTGAAGTATTTTGCAAACCATTTTACATATATACATTTGTCGGAGTCACCTAGTGCAG,8530 fluorescence intensity (a.u.)
4,AGTATTTTATAGCGGTCTTTAGATTTATGAGGTCTATTACCGGAGTCACCTAGTGCAG,8530 fluorescence intensity (a.u.)
5,TTGTCATCTTCCACTCTGTCTTGTCTTTTCTCTGCCTTGACGGAGTCACCTAGTGCAG,9340 fluorescence intensity (a.u.)
6,CATCGGTTTTCTGGGTGTACGGTGTACCCCACGTGTTAGGCGGAGTCACCTAGTGCAG,8510 fluorescence intensity (a.u.)
7,GATTTGCTAGTCCTCACGGCCGCACGCTCTCGCATCCTCGCGGAGTCACCTAGTGCAG,9810 fluorescence intensity (a.u.)
8,CCTTCACCTCTATCTTTCTCTCATTTTCTCCTCTCCCTCTCGGAGTCACCTAGTGCAG,8540 fluorescence intensity (a.u.)
9,GTTATCAGCTTTTCTTTTTTTTTTGAAATTTCAGATTATTCGGAGTCACCTAGTGCAG,8980 fluorescence intensity (a.u.)
10,TTCCGAGTTCACATTCATCATTTCGCTATGCTTATGGACTCGGAGTCACCTAGTGCAG,10900 fluorescence intensity (a.u.)
11,CCACCCCAAGTTACTTTTCTAGTTGTATCTACCCTCTAATCGGAGTCACCTAGTGCAG,9050 fluorescence intensity (a.u.)
12,TCTCTTCTTCTTCTCCAACTTCTTTTTTCTCTTCTTCTTCCGGAGTCACCTAGTGCAG,9680 fluorescence intensity (a.u.)
13,CACCTCCACTGCTACATATCCCACATCACACATCCCCTCTCGGAGTCACCTAGTGCAG,11100 fluorescence intensity (a.u.)
14,GAGGGGAGGGGTTTGGTTTGCTTGGACACTTTGGTTTGGTCGGAGTCACCTAGTGCAG,20100 fluorescence intensity (a.u.)
15,AAGTATCTTGTTTTTCATTGGCTAGGTGAACTTTGTTGCTCGGAGTCACCTAGTGCAG,9170 fluorescence intensity (a.u.)
16,GCAGTTTTTCTTGTCTTTATTCTTATTGATTGCAGAATCACGGAGTCACCTAGTGCAG,9390 fluorescence intensity (a.u.)
17,GACCTGTTGTGTATATCTGAGATCCAGTAACCAATTTTCACGGAGTCACCTAGTGCAG,8360 fluorescence intensity (a.u.)
18,CAGCTCCACCTCACGCGCGCTTCGCCTCGCCGCGCCTCGTCGGAGTCACCTAGTGCAG,8790 fluorescence intensity (a.u.)
19,CTCCGGCCACGGTTGGGTCATTGTCTATGACCCGATCTTCCGGAGTCACCTAGTGCAG,8040 fluorescence intensity (a.u.)
20,TGCTGCAGGTATGTATCATCACGGTGGTCAACGCGGCGAACGGAGTCACCTAGTGCAG,9800 fluorescence intensity (a.u.)
21,CAACTACTCACCATCTTTTTATCAGTCGACCATATATATACGGAGTCACCTAGTGCAG,10500 fluorescence intensity (a.u.)

row,Sequence,binding signal
1,TAGTCTACTCTTTCAACACTCCTTATTTTTAATTCTGAATCGGAGTCACCTAGTGCAG,8150 fluorescence intensity (a.u.)
2,AATCCATTTTTGCTTCCTCTGTTTTGTAATAATCAGTTGTCGGAGTCACCTAGTGCAG,10500 fluorescence intensity (a.u.)
3,CGCCGAGTGACCTCGTTTGCACCGGTTTTGATAGTTCAGACGGAGTCACCTAGTGCAG,8080 fluorescence intensity (a.u.)
4,GGTTGCATAGAGCGATGTTTTTTTAATATAGTTTATACCTCGGAGTCACCTAGTGCAG,8240 fluorescence intensity (a.u.)
5,GAAGTTTGGGTGGGCCGGGCTCATTCATCATCAGCCCATCCGGAGTCACCTAGTGCAG,8170 fluorescence intensity (a.u.)
6,GCCATTATATCTGCAGTTCTTTTCTGTGCTAAAATTTTAGCGGAGTCACCTAGTGCAG,17100 fluorescence intensity (a.u.)
7,CCACTATGGAATTAAACCCTATCATGTGACACATTTGTTACGGAGTCACCTAGTGCAG,8240 fluorescence intensity (a.u.)
8,CTGGGTGTTCAGATATATTACTAGAGGTCATACCATACAACGGAGTCACCTAGTGCAG,8130 fluorescence intensity (a.u.)
9,AGGTAGTTTCCGTTCGTTTTCATACCGTTTTCATCCCTAGCGGAGTCACCTAGTGCAG,9960 fluorescence intensity (a.u.)
10,TCATCATCCCTACGCCTCGTCGTGCCCGTGTGTGCTATGCCGGAGTCACCTAGTGCAG,8640 fluorescence intensity (a.u.)
11,CGTCGCCGCCTCGTCGTCCTCGCTGGCACACCTTCGCCGTCGGAGTCACCTAGTGCAG,8530 fluorescence intensity (a.u.)
12,ATTAAAAGATCTTCTCTCGATCGGTTCTCGCCATTCATCCCGGAGTCACCTAGTGCAG,10500 fluorescence intensity (a.u.)
13,CCTGCCACCGTGCCACCGCCTCTCCGTCCCCATCACCCTCCGGAGTCACCTAGTGCAG,8750 fluorescence intensity (a.u.)
14,CTTCTCGAGTTCATGGCTTCCTTCTTCGGCCGCCGACTCACGGAGTCACCTAGTGCAG,8450 fluorescence intensity (a.u.)
15,CCTCCTCTACACCTTGTCTCCGCCTCGCGGGAGACCACACCGGAGTCACCTAGTGCAG,8590 fluorescence intensity (a.u.)
16,TGTATTTGTCGGCTTGCATCGTCACGGTCTCTGTCACCTCCGGAGTCACCTAGTGCAG,10700 fluorescence intensity (a.u.)
17,GGGAGATCTGGTTATTAGTAGTGCATTGTGTATTCTTTTCCGGAGTCACCTAGTGCAG,16300 fluorescence intensity (a.u.)
18,ATTTCCAGCATGTACTTGCATTATCCATTTTTTCTTTACCCGGAGTCACCTAGTGCAG,11000 fluorescence intensity (a.u.)
19,TCCATCTCTTTCTCGTGCATGCACATGATCCGAGGCACAGCGGAGTCACCTAGTGCAG,8430 fluorescence intensity (a.u.)
20,CCCTTGTTTAGTTCGTGAAAAAAAATTTTTGGGTGTCACACGGAGTCACCTAGTGCAG,9040 fluorescence intensity (a.u.)
21,ACCCTGGTTTCCATGCCCAACGTTTGACCTTCCGTCTTATCGGAGTCACCTAGTGCAG,11200 fluorescence intensity (a.u.)
